{"sequences": {"note": "Amino acid sequences for entries named in this document (tags omitted). Residues count along the entry.", "UniProt P15116, residues 160-906": "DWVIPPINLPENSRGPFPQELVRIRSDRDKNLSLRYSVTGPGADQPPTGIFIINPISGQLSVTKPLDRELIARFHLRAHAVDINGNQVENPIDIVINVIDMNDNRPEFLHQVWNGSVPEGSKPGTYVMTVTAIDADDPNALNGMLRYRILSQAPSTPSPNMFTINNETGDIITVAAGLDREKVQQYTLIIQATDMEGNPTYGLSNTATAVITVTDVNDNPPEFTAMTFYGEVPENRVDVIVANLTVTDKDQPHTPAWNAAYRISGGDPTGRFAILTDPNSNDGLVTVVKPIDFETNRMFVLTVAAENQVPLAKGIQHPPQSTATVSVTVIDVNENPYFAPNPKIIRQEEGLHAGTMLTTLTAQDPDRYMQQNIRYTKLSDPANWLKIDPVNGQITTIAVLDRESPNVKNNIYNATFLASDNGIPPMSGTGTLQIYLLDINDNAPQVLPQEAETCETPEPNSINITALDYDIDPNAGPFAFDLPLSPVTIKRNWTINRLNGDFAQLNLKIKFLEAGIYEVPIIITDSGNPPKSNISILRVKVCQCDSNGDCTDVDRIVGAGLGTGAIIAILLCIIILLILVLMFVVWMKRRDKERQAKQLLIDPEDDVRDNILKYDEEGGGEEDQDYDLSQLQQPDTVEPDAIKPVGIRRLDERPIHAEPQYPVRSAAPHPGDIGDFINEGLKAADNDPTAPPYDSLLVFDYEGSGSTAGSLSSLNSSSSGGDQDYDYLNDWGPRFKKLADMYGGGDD"}, "source": "paper PMC6098079", "target": "N-cadherin (mouse (endogenous in C2C12)) (UniProt P15116)", "assay": "co-IP; C2C12 myoblast lysates, cells with or without cAng1 stimulation; immunoprecipitation with immunocruz, immunoblot", "note": "These are yes or no findings as the source states them, for the method shown. Binding seen in cells or lysates may run through a third protein. Some entries that bind do so weakly or less than the wild type."}
{"binder": "p120-catenin (protein, UniProt P30999 1-938) MDDSEVESTASILASVKEQEAQFEKLTRALEEERRHVSAQLERVRVSPQDANSLMANGTLTRRHQNGRFVGDADLERQKFSDLKLNGPQDHNHLLYSTIPRMQEPGQIVETYTEEDPEGAMSVVSVETTDDGTTRRTETTVKKVVKTMTTRTVQPVPMGPDGLPVDASAVSNNYIQTLGRDFRKNGNGGPGPYVGQAGTATLPRNFHYPPDGYGRHYEDGYPGGSDNYGSLSRVTRIEERYRPSMEGYRAPSRQDVYGPQPQVRVGGSSVDLHRFHPEPYGLEDDQRSMGYDDLDYGMMSDYGTARRTGTPSDPRRRLRSYEDMIGEEVPPDQYYWAPLAQHERGSLASLDSLRKGMPPPSNWRQPELPEVIAMLGFRLDAVKSNAAAYLQHLCYRNDKVKTDVRKLKGIPILVGLLDHPKKEVHLGACGALKNISFGRDQDNKIAIKNCDGVPALVRLLRKARDMDLTEVITGTLWNLSSHDSIKMEIVDHALHALTDEVIIPHSGWEREPNEDCKPRHIEWESVLTNTAGCLRNVSSERSEARRKLRECDGLVDALIFIVQAEIGQKDSDSKLVENCVCLLRNLSYQVHREIPQAERYQEALPTVANSTGPHAASCFGAKKGKDEWFSRGKKPTEDPANDTVDFPKRTSPARGYELLFQPEVVRIYISLLKESKTPAILEASAGAIQNLCAGRWTYGRYIRSALRQEKALSAIAELLTSEHERVVKAASGALRNLAVDARNKELIGKHAIPNLVKNLPGGQQNSSWNFSEDTVVSILNTINEVIAENLEAAKKLRETQGIEKLVLINKSGNRSEKEVRAAALVLQTIWGYKELRKPLEKEGWKKSDFQVNLNNASRSQSSHSYDDSTLPLIDRNQKSDKKPDREEIPMSNMGSNTKSLDNNYSTLNERGDHNRTLDRSGDLGDMEPLKGAPLMQKI", "values": [{"measurement": "binding", "value": "binds"}]}
